No constants are given. Whether binding was seen depends on the method and setting. In cells and extracts the contact can be indirect. Some binding calls cover weakened binding; strength is not graded here.
Biological target: TRAF2- and NCK-interacting protein kinase (TNIK) (human (endogenous in U2OS)) (UniProt Q9UKE5)
Assay: co-IP; nuclear protein extract of U2OS cells (NE-PER); incubated at 4°C overnight with anti-TNIK, anti-PPARγ or relevant control IgG; precipitated with Dynabeads protein G; immunoblotted with anti-TNIK and anti-PPARγ

By UniProt entry, the sequences of proteins in these tests, tags left out.
UniProt Q9UKE5: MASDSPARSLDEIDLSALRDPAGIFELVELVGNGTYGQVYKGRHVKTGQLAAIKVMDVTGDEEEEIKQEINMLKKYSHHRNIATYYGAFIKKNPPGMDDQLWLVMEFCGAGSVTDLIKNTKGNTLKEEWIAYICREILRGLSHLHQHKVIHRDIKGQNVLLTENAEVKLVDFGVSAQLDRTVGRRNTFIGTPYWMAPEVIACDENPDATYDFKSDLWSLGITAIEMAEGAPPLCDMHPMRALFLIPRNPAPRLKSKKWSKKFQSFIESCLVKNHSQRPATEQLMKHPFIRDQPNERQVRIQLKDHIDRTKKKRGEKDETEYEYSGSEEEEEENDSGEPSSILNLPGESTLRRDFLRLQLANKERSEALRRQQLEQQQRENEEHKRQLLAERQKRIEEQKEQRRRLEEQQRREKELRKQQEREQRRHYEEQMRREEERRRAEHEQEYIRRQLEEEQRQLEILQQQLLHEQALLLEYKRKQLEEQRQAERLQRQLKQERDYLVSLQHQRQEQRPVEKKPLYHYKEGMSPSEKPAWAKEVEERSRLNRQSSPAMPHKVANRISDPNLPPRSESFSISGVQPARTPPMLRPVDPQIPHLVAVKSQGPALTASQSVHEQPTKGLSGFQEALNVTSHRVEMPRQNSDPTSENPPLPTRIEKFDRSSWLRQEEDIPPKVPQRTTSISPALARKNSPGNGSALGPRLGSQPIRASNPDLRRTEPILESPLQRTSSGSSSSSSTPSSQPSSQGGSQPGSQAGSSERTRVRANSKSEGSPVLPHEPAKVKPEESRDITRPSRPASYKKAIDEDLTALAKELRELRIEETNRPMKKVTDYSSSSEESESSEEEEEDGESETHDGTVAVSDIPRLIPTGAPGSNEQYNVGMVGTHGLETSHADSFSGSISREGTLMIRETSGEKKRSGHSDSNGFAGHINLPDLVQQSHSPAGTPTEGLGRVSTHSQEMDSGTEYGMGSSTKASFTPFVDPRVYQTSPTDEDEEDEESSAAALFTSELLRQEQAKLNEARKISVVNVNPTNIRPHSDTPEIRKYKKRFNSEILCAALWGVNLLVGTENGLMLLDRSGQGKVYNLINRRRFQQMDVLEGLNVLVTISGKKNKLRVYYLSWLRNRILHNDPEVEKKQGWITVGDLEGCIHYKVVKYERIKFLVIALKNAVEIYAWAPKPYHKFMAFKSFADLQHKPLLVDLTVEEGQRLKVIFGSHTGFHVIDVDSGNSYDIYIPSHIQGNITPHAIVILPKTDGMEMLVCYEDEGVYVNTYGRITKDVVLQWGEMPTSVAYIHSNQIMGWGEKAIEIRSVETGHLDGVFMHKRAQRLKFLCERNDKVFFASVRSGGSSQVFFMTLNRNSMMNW
UniProt P37231: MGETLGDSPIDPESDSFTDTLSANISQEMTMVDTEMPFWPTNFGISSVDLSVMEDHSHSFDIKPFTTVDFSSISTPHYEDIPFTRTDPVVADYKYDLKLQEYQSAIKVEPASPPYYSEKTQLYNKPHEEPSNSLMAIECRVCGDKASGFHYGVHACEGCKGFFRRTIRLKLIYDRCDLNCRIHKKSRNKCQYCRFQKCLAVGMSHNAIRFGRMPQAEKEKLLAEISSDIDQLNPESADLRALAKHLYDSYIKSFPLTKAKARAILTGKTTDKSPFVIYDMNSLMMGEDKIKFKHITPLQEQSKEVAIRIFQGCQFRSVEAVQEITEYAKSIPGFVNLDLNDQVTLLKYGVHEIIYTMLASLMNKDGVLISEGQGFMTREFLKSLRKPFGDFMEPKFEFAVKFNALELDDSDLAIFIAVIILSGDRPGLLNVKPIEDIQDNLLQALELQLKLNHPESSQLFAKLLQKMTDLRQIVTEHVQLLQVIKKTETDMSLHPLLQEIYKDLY

binding: binds
Substance: PPARγ (from UniProt P37231 1-505)

Reference: publication PMC7934882
